Results as given in US11510908B2, “Protein translation inhibitors and uses thereof” (University of Maryland, Baltimore, priority 2019, dated 2022).
Some of these results come from one statement about several compounds together.

System: Iron Responsive Protein (IRP)
Assay: RNA band shift (EMSA) with Iron Responsive Protein and Iron Responsive Element (specificity)
Assay type: binding

SMILES: CC(=O)Oc1ccccc1C(=O)Nc1ccccc1Sc1ncnc2scc(-c3ccccc3)c12 [Compound 2]
- RNA binding specificity: no significant IRE competition: > 5 mM

SMILES: CC(=O)Oc1cccc(C(=O)Nc2ccc(C(=O)Nc3nccs3)cc2)c1 [Compound 3]
- RNA binding specificity: no significant IRE competition: > 5 mM

SMILES: COc1ccccc1C(=O)Nc1nc(-c2ccc(C)cc2)c(NC(C)=O)s1 [Compound 4]
- RNA binding specificity: no significant IRE competition: > 5 mM

SMILES: Cc1sc(NC(=O)c2ccccc2)nc1OC(=O)c1ccccc1 [Compound 5]
- RNA binding specificity: no significant IRE competition: > 5 mM
